# Cleaved PARP after 72 h of treatment

First drug in all entries: TCS401, 8.33 µM, O=C(O)C(=O)Nc1sc2c(c1C(=O)O)CCNC2

Drug key:
FH535, 5 µM: Cc1cc([N+](=O)[O-])ccc1NS(=O)(=O)c1cc(Cl)ccc1Cl
KU-55933, 5 µM: O=c1cc(-c2cccc3c2Sc2ccccc2S3)oc(N2CCOCC2)c1
JZL184, 5 µM: O=C(Oc1ccc([N+](=O)[O-])cc1)N1CCC(C(O)(c2ccc3c(c2)OCO3)c2ccc3c(c2)OCO3)CC1
dasatinib, 0.02 µM: Cc1nc(Nc2ncc(C(=O)Nc3c(C)cccc3Cl)s2)cc(N2CCN(CCO)CC2)n1
YM155, 0.002 µM: COCC[n+]1c2c(n(Cc3cnccn3)c1C)C(=O)c1ccccc1C2=O
A-769662, 10 µM: N#Cc1c(O)c2c(-c3ccc(-c4ccccc4O)cc3)csc2[nH]c1=O
decitabine, 0.5 µM: Nc1ncn([C@H]2C[C@H](O)[C@@H](CO)O2)c(=O)n1
temozolomide, 10 µM: Cn1nnc2c(C(N)=O)ncn2c1=O
AS-252424, 5 µM: O=C1NC(=O)/C(=C/c2ccc(-c3ccc(F)cc3O)o2)S1
fludarabine, 1 µM: Nc1nc(F)nc2c1ncn2[C@@H]1O[C@H](CO)[C@@H](O)[C@@H]1O
vismodegib, 5 µM: CS(=O)(=O)c1ccc(C(=O)Nc2ccc(Cl)c(-c3ccccn3)c2)c(Cl)c1
MK-2206, 2 µM: NC1(c2ccc(-c3nc4ccn5c(=O)[nH]nc5c4cc3-c3ccccc3)cc2)CCC1
OSU-03012, 5 µM: NCC(=O)Nc1ccc(-n2nc(C(F)(F)F)cc2-c2ccc3c(ccc4ccccc43)c2)cc1
Src-I1, 10 µM: COc1cc2ncnc(Nc3ccc(Oc4ccccc4)cc3)c2cc1OC
L-779450, 1 µM: Oc1cc(-c2nc(-c3ccccc3)[nH]c2-c2ccncc2)ccc1Cl
erlotinib, 4 µM: C#Cc1cccc(Nc2ncnc3cc(OCCOC)c(OCCOC)cc23)c1
embelin, 6 µM: CCCCCCCCCCCC1=C(O)C(=O)C=C(O)C1=O
everolimus, 0.1 µM: CO[C@H]1C[C@@H]2CC[C@@H](C)[C@@](O)(O2)C(=O)C(=O)N2CCCC[C@H]2C(=O)O[C@H]([C@H](C)C[C@@H]2CC[C@@H](OCCO)[C@H](OC)C2)CC(=O)[C@H](C)/C=C(\C)[C@@H](O)[C@@H](OC)C(=O)[C@H](C)C[C@H](C)/C=C/C=C/C=C/1C
ENMD-2076, 0.2 µM: Cc1cc(Nc2cc(N3CCN(C)CC3)nc(/C=C/c3ccccc3)n2)n[nH]1
nutlin-3, 0.5 µM: COc1ccc(C2=N[C@@H](c3ccc(Cl)cc3)[C@@H](c3ccc(Cl)cc3)N2C(=O)N2CCNC(=O)C2)c(OC(C)C)c1
lenalidomide, 5 µM: Nc1cccc2c1CN(C1CCC(=O)NC1=O)C2=O (configuration not stated)

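Human melanoma cells were exposed to a pair of drugs for 72 h in 1,536-well plates and read by automated microscopy after fixing and staining. Each value is the cleaved-PARP-positive fraction of nuclei relative to DMSO-treated wells, in %, so that 100 equals the control and higher values mean more apoptosis. Concentrations were fixed for each drug; these are the higher of two levels. These are primary screening values without error estimates. Basal and induced levels differ widely between cell lines.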 An unselected part of the screen is shown. A dash means that no value is listed here.

| # | Partner | WM1745 | COLO 829 | SK-MEL-28 | WM451Lu |
|---|---|---|---|---|---|
| 1 | AS-252424 | 151 | 182 | 50.6 | 25.0 |
| 2 | temozolomide | 112 | 59.5 | 141 | 179 |
| 3 | L-779450 | 179 | 105 | 104 | 615 |
| 4 | JZL184 | 72.8 | 126 | 80.7 | 122 |
| 5 | MK-2206 | - | 17.4 | 120 | 91.2 |
| 6 | ENMD-2076 | - | 55.9 | 133 | 135 |
| 7 | YM155 | 146 | 139 | 413 | 276 |
| 8 | Src-I1 | 136 | 19.4 | 67.6 | 37.2 |
| 9 | vismodegib | - | 105 | 222 | 63.8 |
| 10 | embelin | 135 | 137 | 92.0 | 71.0 |
| 11 | FH535 | 182 | 192 | 114 | 43.4 |
| 12 | fludarabine | - | 79.4 | 954 | 24.0 |
| 13 | dasatinib | 313 | 46.1 | 73.3 | 181 |
| 14 | OSU-03012 | 155 | 29.7 | 485 | 31.6 |
| 15 | KU-55933 | 222 | 61.8 | 90.7 | 22.8 |
| 16 | erlotinib | 137 | 131 | 196 | 608 |
| 17 | everolimus | - | 321 | 108 | 1000 |
| 18 | A-769662 | 85.0 | 80.7 | 137 | 77.8 |
| 19 | decitabine | - | 186 | 75.0 | 383 |
| 20 | lenalidomide | 129 | 85.3 | 94.3 | 105 |
| 21 | nutlin-3 | - | 112 | 112 | 42.1 |

For reference, 2 entries once more:

Partner,WM1745,COLO 829,SK-MEL-28,WM451Lu
ENMD-2076,-,55.9,133,135
OSU-03012,155,29.7,485,31.6

From a melanoma drug combination screen (doi:10.1371/journal.pone.0140310); values rounded.